Measured values: PubChem BioAssay AID1671190 (National Center for Advancing Translational Sciences (NCATS), 2021)
Several values for one entry are separate records, joined by “and”; a condition that tells them apart may be missing. Identical values can stand only once. Among all 580,000 compounds or so, about 6,100 (1.1%) were called active. Inconclusive results, whose numbers are uncertain, are shown with a selection of clear calls. Calls follow the shape of the dose curve; as a rule, active = well fitted inhibition curve with a large enough effect; inconclusive = small, poorly fitted or top-dose-only effect, or another doubt; inactive = no such curve, though single readings can be large or run the other way. Potencies beside an inconclusive call are fits to weak or partial responses and may not hold up.

Sequences of proteins named here, by UniProt entry; tags and fusion partners are left off. A change or cut given only in a name is not applied to a line headed by its entry.
UniProt P18054: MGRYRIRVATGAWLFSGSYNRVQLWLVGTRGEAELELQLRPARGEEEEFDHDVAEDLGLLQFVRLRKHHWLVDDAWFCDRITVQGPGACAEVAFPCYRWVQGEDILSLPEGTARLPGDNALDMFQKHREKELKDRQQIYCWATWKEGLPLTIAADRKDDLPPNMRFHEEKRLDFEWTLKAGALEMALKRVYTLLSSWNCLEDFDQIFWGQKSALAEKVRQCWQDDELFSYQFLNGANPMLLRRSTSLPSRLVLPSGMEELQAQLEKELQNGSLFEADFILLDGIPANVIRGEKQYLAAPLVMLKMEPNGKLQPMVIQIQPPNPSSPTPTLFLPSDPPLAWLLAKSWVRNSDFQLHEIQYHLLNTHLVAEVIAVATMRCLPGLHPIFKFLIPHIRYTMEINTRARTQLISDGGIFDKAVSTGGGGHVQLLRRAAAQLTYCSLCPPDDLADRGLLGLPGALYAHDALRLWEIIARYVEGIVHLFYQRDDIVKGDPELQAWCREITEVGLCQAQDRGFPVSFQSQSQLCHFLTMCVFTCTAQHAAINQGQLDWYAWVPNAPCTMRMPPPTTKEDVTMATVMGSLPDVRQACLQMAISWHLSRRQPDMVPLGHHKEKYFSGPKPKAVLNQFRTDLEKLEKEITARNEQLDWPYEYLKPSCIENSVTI

Biological target: Polyunsaturated fatty acid lipoxygenase ALOX12 (Homo sapiens) (UniProt P18054)
Assay: Primary qHTS assay for inhibitors of human arachidonate 12S-lipoxygenase (ALOX12): Round 2
Conditions: purified 12hLO, xylenol orange hydroperoxide absorbance; activity change, negative = inhibition: at 108 µM (top of the series) unless noted
In short: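 Purified human 12hLO at 150 nM in 25 mM Hepes, 0.01% Triton X-100, pH 7.0, preincubated 15 min at room temperature with compound. Reaction started with 40 uM arachidonic acid, 30 min at room temperature. Hydroperoxide measured by Fe-xylenol orange, 573/405 nm absorbance ratio.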
% is scaled to controls: 0 for no effect and ±100 for the full control effect; potency is read from the fitted curve at half-maximal effect.

Question: For `CC(C)Cc1cc(C(=O)N2CCCC(CO)(Cc3ccc(F)cc3)C2)no1` (stereo not given), which Potency is on record?
Answer: The Potency was inconclusive: 89.1 µM [inhibitor, partial curve, poor fit].

Question: `Cc1ccc2c(c1)C1(SC(C)C(=O)N1c1ccc(Cl)cc1)C(=O)N2` (stereo not given) was tested. Which Potency did it give?
Answer: Its Potency is inconclusive: 100 µM [inhibitor, single point].

Question: For `CC(C)C[C@@H](NC(=O)Nc1cccc(Cl)c1)C(=O)O`, which Potency is on record?
Answer: Its Potency is inconclusive: 22.4 µM [inhibitor, single point].

Question: For `COc1ccc(Cc2n[nH]c(=S)o2)cc1`, which Potency is on record?
Answer: Its Potency is “inactive”.

Question: `O=C(CCn1ccc2cc(S(=O)(=O)N3CCCC3)ccc21)NCc1cccc(F)c1` was tested. Which Potency did it give?
Answer: The Potency was “inactive and inconclusive: 100 µM [inhibitor, single point]”.

Question: How did the Potency turn out when `Cc1cc(CNC(=O)c2ccncc2)c2ccccc2n1` was run?
Answer: The Potency was “inactive”.

Question: Which Potency does the source give for `O=C(c1cccs1)N1CCC(N2C(=O)C(OCC3CC3)C23CCCCC3)CC1` (stereo not given) here?
Answer: The Potency was “inactive”.

Question: With `FC(F)(F)c1ccc(Cl)c(N/N=C/c2ccccc2Cl)c1` as the compound, how does the Potency read?
Answer: Its Potency is active: 35.5 µM.

Question: How did the Potency turn out when `CC(=O)O[C@H]1C=C[C@@H](C#Cc2ccc(C(C)(C)C)cc2)O[C@@H]1COC(=O)Nc1ccccc1` was run?
Answer: The Potency was inconclusive: 44.7 µM [inhibitor, partial curve].

Question: Which Potency does the source give for `Cn1cc(Br)c(-c2cccc(NC(=O)CCC(=O)O)c2)n1` here?
Answer: The Potency was “inactive”.

Question: `CN(C)c1ccc(C2Nc3cccc4cccc(c34)N2)cc1` was tested. Which Potency did it give?
Answer: The Potency was “inactive”.

Question: For `COc1ccc(C(=O)NNC(=O)c2cccs2)cc1S(=O)(=O)N1CCOCC1`, which activity change, negative = inhibition is on record?
Answer: The activity change, negative = inhibition was inconclusive: -32.7% [inhibitor].

Question: How did the Potency turn out when `COc1cc(OC)c(C2Nc3ccccc3-c3nnc(SCc4ccccc4)nc3O2)cc1OC` (stereo not given) was run?
Answer: The Potency was inconclusive: 89.1 µM [inhibitor, partial curve, poor fit].

Question: How did the Potency turn out when `CCC1=C(C(=O)OC)C(c2ccc(C)cc2)N2C(CC(=O)N3CCCC3)=CSC2=N1` (stereo not given) was run?
Answer: The Potency was “inactive”.

Question: How did the Potency turn out when `Cc1ccc(CNC(=O)Nc2ccc(OC(F)(F)F)cc2)n1C` was run?
Answer: Its Potency is inconclusive: 31.6 µM [inhibitor, single point].

Question: With `COc1ccc(CC(N)c2csc(NC(=O)Nc3ccccc3C(C)(C)C)n2)cc1` (stereo not given) as the compound, how does the Potency read?
Answer: The Potency was inconclusive: 44.7 µM [inhibitor, partial curve, poor fit].

Question: Which Potency does the source give for `COc1ccccc1N1CCCc2ncc(C(=O)N3CCC[C@@H]3c3ccc(F)cc3)cc21` here?
Answer: Its Potency is “inactive”.

Question: With `Cc1ccc2cc(/C=C3\N=C(c4ccccc4)OC3=O)c(N3CCOCC3)nc2c1` as the compound, how does the Potency read?
Answer: The Potency was inconclusive: 44.7 µM [inhibitor, partial curve, poor fit].

Question: `Cc1cccc(C)c1-n1ncc(C(=O)NCCN2CCOCC2)c1C1CCN(C(=O)OC(C)(C)C)CC1` was tested. Which Potency did it give?
Answer: Its Potency is “inactive”.

Question: For `CSCc1ccc(C(=O)N2CCN(C(c3ccc(F)cc3)c3ccc(F)cc3)CC2)o1`, which Potency is on record?
Answer: The Potency was inconclusive: 12.6 µM [inhibitor, full curve, poor fit].
